According to patent US20080131366A1, “Folate Receptor Gene Modulation For Cancer Diagnosis And Therapy” (priority 2003, published 2008):
For part of these data: At least one structure is not confirmed: it was looked up by name or label, or the drawing left a doubt. Some entries share one result that the patent states for a list of compounds.

Tests used:
FR-α [1] = test: Endogenous FR-α in HeLa cells treated with Dex, western blot; type: cell-based; details: HeLa cells in vitro
FR-α promoter [2] = test: FR-α promoter-luciferase in T47D cells (endogenous PR and GR); type: cell-based; details: results not shown
FR-α [3] = test: FR-α in HeLa tumor xenografts in SCID mice with Dex pellets, western blot; type: in vivo; details: one 0.001 mg slow release Dex pellet per mouse sc, seven days, compared to the placebo group
GRE2e1b promoter = test: GRE2e1b promoter-luciferase in HeLa cells transfected with PRa or PRb; type: cell-based
FR-α promoter [4] = test: FR-α promoter-luciferase in HeLa cells transfected with PRa; type: cell-based; details: in the presence of R5020
FR-α promoter [5] = test: FR-α promoter-luciferase in HeLa cells transfected with PRb; type: cell-based
FR-α [6] = test: Endogenous FR-α expression in HeLa-I-1 cells, western blot; details: HeLa-I-1, period of six days

Structure (SMILES): C[C@@H]1C[C@H]2[C@@H]3CCC4=CC(=O)C=C[C@]4(C)[C@@]3(F)[C@@H](O)C[C@]2(C)[C@@]1(O)C(=O)CO [Dex, dexamethasone]
- expression of endogenous FR-α (FR-α [1]): strikingly upregulated
- FR-α promoter activity (FR-α promoter [2]; Dex alone): unable to significantly alter the promoter activity
- FR-α promoter activity (FR-α promoter [2]; in the presence of TSA (25 ng/ml)): enhanced the promoter activity
- FR-α expression in tumors (FR-α [3]): striking increase in FR-α expression

Structure (SMILES): CC#C[C@]1(O)CC[C@H]2[C@@H]3CCC4=CC(=O)CCC4=C3[C@@H](c3ccc(N(C)C)cc3)C[C@@]21C [RU486]
- transactivation by PRa and PRb in the presence of R5020 (GRE2e1b promoter): inhibited transactivation of the GRE2e1b promoter
- action of PRa/R5020 on the FR-α promoter (FR-α promoter [4]): also inhibited the action of PRa/R5020
- FR-α promoter activity with PRb (FR-α promoter [5]; PRb/Ru486): effectively activated the FR-α promoter
- action of PRb/R5020 on the FR-α promoter (FR-α promoter [5]; in the presence of R5020): but not that of PRb/R5020

Structure (SMILES): CC/C(=C(\c1ccccc1)c1ccc(OCCN(C)C)cc1)c1ccccc1 [tamoxifen, Tamoxifen]
- endogenous FR-α level over the untreated control (FR-α [6]): ≤ 36 fold
